Assay results as given in PubChem BioAssay AID1347076 (National Center for Advancing Translational Sciences (NCATS), 2019).
The whole screen tested about 400,000 compounds, of which about 13,000 (3.2%) were called active. The inconclusive results got no clear call from the source; some entries with a clear call stand among them for comparison. The call rests on the fitted dose curve; in most records, active means well fitted cell-killing curve with a large enough effect; inconclusive means small, poorly fitted or top-dose-only effect, or effect the other way; inactive means flat fitted curve, though single readings scatter. Where the call is inconclusive, the potency comes from a doubtful curve fit.

Test: qHTS assay for MDR1-selective chemotherapeutics: Primary screen using the drug-selected MDR subline cells KB-V1; further: nearly all actives have a fitted effect of over 60% in size
Conditions: KB-V1 MDR cells viability, CellTiter-Glo, 72 h; activity change, negative = cytotoxicity: at 46.1 µM (top of the series)
Method in brief: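 KB-V1, DMEM (no phenol red) + 10% FBS; cpd pin-transferred, titration series; 72 h, 37 degrees C; CellTiter-Glo, luminescence. Data normalized, curve-fit.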
On the % scale 0 is the no-effect control and ±100 the full control effect; potency means the concentration at half of the fitted maximal effect.

SMILES	activity change, negative = cytotoxicity	Potency
Cc1ccc(N2CCN(C(=O)NC3CCCCC3)CC2C)cc1 (stereo not given)	inactive: -0.619%	
Cc1occc1C(=O)N(C)Cc1nc(-c2ccc(Cl)cc2)no1		inconclusive: 25.9 µM [cytotoxic, partial curve, poor fit]
CCS(=O)(=O)Nc1ccc(-c2nc3cccnc3s2)cc1	inactive: -1.09%	
COC(=O)CCCC(=O)N1CCC(CCC(=O)NCc2ccc(F)cc2)CC1		inconclusive: 29.1 µM [cytotoxic, single point]
Cc1cc2nc(-c3ccco3)c(Cc3cccc(Cl)c3)n2c(C)c1Br	inactive: 16.9%	
FC(F)(F)c1ccccc1/C=N/N1CCN(Cc2ccccc2)CC1		inconclusive: 29.1 µM [cytotoxic, single point]
CCCn1c(Nc2nc3ccccc3n2C)nc2ccccc21		inconclusive: 20.6 µM [cytotoxic, single point]
CCN(CC)c1ccc(CNCc2cccs2)cc1		inconclusive: 16.4 µM [cytotoxic, partial curve]
CN(C)S(=O)(=O)c1cc(NC(=O)CNCc2ccc(F)cc2)ccc1Cl		inconclusive: 0.92 µM [rising, full curve]
Cc1cc(C)c(C)c(S(=O)(=O)N2CCN(C(=S)NCC3CCCO3)CC2)c1C (stereo not given)		inconclusive: 23.1 µM [cytotoxic, single point]
COc1ccc(/C=N\NC(=O)c2cccc(F)c2)cc1COc1ccccc1		inconclusive: 25.9 µM [cytotoxic, partial curve, poor fit]
CCN(CC)S(=O)(=O)c1ccc(N2CCCC2)c(NC(=O)C2CSC3(C)CCC(=O)N23)c1 (stereo not given)		inconclusive: 7.31 µM [cytotoxic, partial curve]
COc1ccc(-c2oc3ncn4nc(-c5ccc(Cl)cc5)nc4c3c2-c2ccc(OC)cc2)cc1		inconclusive: 18.4 µM [rising, partial curve, poor fit]
O=c1oc2c(CN3CCN(CCO)CC3)c(O)ccc2cc1-c1ccccn1		inconclusive: 0.0517 µM [cytotoxic, full curve]
Cc1cc(C(=O)N2CCC(Cc3ccccc3)CC2)c(C)o1	inactive: 0%	
CN(Cc1c(F)cccc1Cl)C(=O)C1CC(=O)N(CCc2ccccc2)C1 (stereo not given)		inconclusive: 16.4 µM [cytotoxic, single point]
COc1cc2c(cc1OC)C(c1ccc(Cl)cc1)N(c1ccc(C)c(F)c1)C(=O)C2 (stereo not given)		inconclusive: 29.1 µM [cytotoxic, single point]
CC1CCN(CC(O)COC2CCC(C(C)(C)C)CC2)CC1 (stereo not given)	inactive: -25.1%	
COCCNC(=O)c1noc2c1CCc1cc(OC)ccc1-2	inactive: -16.9%	
COc1ccc(S(=O)(=O)Nc2ncccn2)cc1		inconclusive: 29.1 µM [rising, single point]
O[C@H]1CN(CC2CCCCC2)[C@@H](c2ccccc2)C[C@@H]1n1cc(C2CC2)nn1		inconclusive: 20.6 µM [cytotoxic, single point]
CCOC(=O)NC(=O)COC(=O)c1cccc2ccccc12	inactive: -1.44%	
O=C(CN1CCN(S(=O)(=O)c2ccc(Cl)cc2)CC1)Nc1ccc(F)cc1F		inconclusive: 0.82 µM [rising, full curve]

Part of the list above, with bars between the fields:
SMILES | activity change, negative = cytotoxicity | Potency
Cc1occc1C(=O)N(C)Cc1nc(-c2ccc(Cl)cc2)no1 |  | inconclusive: 25.9 µM [cytotoxic, partial curve, poor fit]
CCS(=O)(=O)Nc1ccc(-c2nc3cccnc3s2)cc1 | inactive: -1.09% | 
COC(=O)CCCC(=O)N1CCC(CCC(=O)NCc2ccc(F)cc2)CC1 |  | inconclusive: 29.1 µM [cytotoxic, single point]

Remaining list, next part:

SMILES	activity change, negative = cytotoxicity	Potency
CCOC(=O)/C(=N\Nc1cccc(C(F)(F)F)c1)N(CCOC)CCOC		active: 23.1 µM
COc1ccc(Cl)cc1NC(=O)CN(C)CC(=O)Nc1ccc(C)cc1Br		inconclusive: 7.31 µM [cytotoxic, partial curve]
CC(C)(C)C(=O)CSc1ncnc2c1cnn2Cc1ccccc1		inconclusive: 20.6 µM [cytotoxic, single point]
CCOC(=O)C1(Cc2ccccc2C)CCCN(C(=O)c2sccc2C)C1 (stereo not given)		inconclusive: 32.6 µM [cytotoxic, single point]
Cc1ccc(/C=N/N(C)S(=O)(=O)c2ccc(C)cc2)cc1	inactive: 3.18%	
CC(=O)Nc1cc(-c2ccc(N3CCN(C)CC3)cc2)cn2c(-c3ccc(F)cc3)cnc12		inconclusive: 29.1 µM [cytotoxic, single point]
Cc1cccc(C)c1OCCNC(=O)C(=O)NCc1ccco1		inconclusive: 0.82 µM [cytotoxic, full curve, poor fit]
Cc1ccc(S(=O)(=O)N(C)C[C@@H]2OCc3cnnn3CCCC(=O)N([C@@H](C)CO)C[C@@H]2C)cc1	inactive: 15%	
O=C(CCC1CCCN(C(=O)c2cc3ccccc3o2)C1)NCc1ccc(F)c(F)c1 (stereo not given)	inactive: 0%	
CC(C)Cn1c(N)c(C(=O)COC(=O)CC23CC4CC(CC(C4)C2)C3)c(=O)n(C)c1=O		inconclusive: 23.1 µM [cytotoxic, single point]
Cc1cccc(N2CCN(C(=O)c3ccncc3)CC2C)c1 (stereo not given)	inactive: 0%	
COc1cc(CNCCN(C)C)c(Br)cc1OCC(=O)NCc1ccccc1		inconclusive: 20.6 µM [cytotoxic, single point]
COc1ccc(C2c3c(n(C)c4ccccc34)C(=O)N2CC(=O)Nc2ccc(Cl)cc2)cc1 (stereo not given)	inactive: -5.59%	
CCCN1CCN(CCNC(=O)Nc2cc(OC)cc(OC)c2)CC1		inconclusive: 23.1 µM [rising, single point]
O=C(CSc1ncc2c(n1)-c1ccccc1N(Cc1ccc(F)cc1)S2(=O)=O)c1ccc(Br)cc1	inactive: 3.96%	
Cc1ccc(NC(=O)C(=O)NCC(c2ccc3c(c2)OCO3)N2CCOCC2)c(C)c1 (stereo not given)	inactive: -9.6%	
Cc1ccc(OCCC(=O)N(Cc2ccccc2)c2c(N)n(Cc3ccccc3)c(=O)[nH]c2=O)cc1		inconclusive: 14.6 µM [cytotoxic, partial curve, poor fit]
Cc1nc2sc(-c3ccccc3)nn2c(=O)c1Br		inconclusive: 3.26 µM [cytotoxic, partial curve, poor fit]
CCOC(=O)C(C)Sc1nc(-c2cccs2)ccc1C#N (stereo not given)		inconclusive: 16.4 µM [cytotoxic, single point]
Cc1ccc(OC(=O)c2snnc2C)cc1C	inactive: 26.2%	
Cc1ccc(S(=O)(=O)N(C)c2ccc(OCC(=O)N3CCCCC3)cc2)cc1		inconclusive: 8.2 µM [cytotoxic, partial curve, poor fit]
Cc1ccc(-c2nc(-c3ccncc3)no2)cc1C		inconclusive: 4.11 µM [cytotoxic, full curve]
